Values from PubChem BioAssay AID602196 (INSERM, 2012).
Here is a random part of about 23,000 reagents. Over the whole deposit, 455 (2%) were called active. 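Active includes both protection and sensitisation; some change values fall well beyond the stated -50 to +50 range.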 The numbers tell different reagents against one gene apart. The record does not give: the amount of reagent.

- Purpose: 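Knock-downs that protect lung cancer cells from cisplatin or sensitise them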
- System: human A549 lung cancer cells
- Reagent: siRNA pair against human genes
- Time to read-out: 48 h transfection before cisplatin; time from cisplatin to read-out not stated
- Challenge: cisplatin at a dose killing half of control-siRNA cells; exact dose and duration not given
- Measured: 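Cisplatin cell death as a shift from the 50% death seen with control siRNA; siRNAs toxic or growth-blocking alone scored 0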
- Reading the numbers: two-siRNA summed score (-2 to +2): higher = both siRNAs protect from cisplatin killing; -2 means both sensitise; mean protection from cisplatin (shift in death) and protection from cisplatin (shift in death), siRNA C and protection from cisplatin (shift in death), siRNA D: higher = protection from cisplatin killing
- Call rule: 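siRNAs harmful alone (LDH or WST-1) get 0; others get +1 for less and -1 for more cisplatin killing; genes are active when the two siRNAs give the same sign, summing to ±2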
- Calls: active = both siRNAs shift cisplatin killing the same way; inactive = no consistent shift, or siRNA harmful alone

| target gene | reagent | two-siRNA summed score (-2 to +2) | mean protection from cisplatin (shift in death) (%) | protection from cisplatin (shift in death), siRNA C (%) | protection from cisplatin (shift in death), siRNA D (%) | outcome |
| --- | --- | --- | --- | --- | --- | --- |
| C1QL3 | 1 | 2 | 14.7 | 13.4 | 16 | active |
| GOLGA6L22 | 1 | 0 | 9.2 | 10 | 8.4 | inactive |
| GOLGA6L22 | 2 | 0 | 13.7 | 8.5 | 18.9 | inactive |
| MFN1P1 | 1 | 0 | 6 | 8.9 | 3.2 | inactive |
| COLEC12 | 1 | 1 | 15.9 | 21.5 | 10.2 | inactive |
| THEM5 | 1 | 0 | 2.3 | 2.4 | 2.2 | inactive |
| SERPINB3 | 1 | 0 | 4.3 | -3.6 | 12.1 | inactive |
| LOC390424 | 1 | 1 | 12.2 | 19.5 | 4.9 | inactive |
| WDR41 | 1 | 0 | 2.7 | -1 | 6.4 | inactive |
| DCLRE1C | 1 | 0 | 7.3 | 6.1 | 8.6 | inactive |

Quoted from above, 3 entries:
| target gene | reagent | two-siRNA summed score (-2 to +2) | mean protection from cisplatin (shift in death) (%) | protection from cisplatin (shift in death), siRNA C (%) | protection from cisplatin (shift in death), siRNA D (%) | outcome |
| --- | --- | --- | --- | --- | --- | --- |
| GOLGA6L22 | 2 | 0 | 13.7 | 8.5 | 18.9 | inactive |
| MFN1P1 | 1 | 0 | 6 | 8.9 | 3.2 | inactive |
| COLEC12 | 1 | 1 | 15.9 | 21.5 | 10.2 | inactive |

Continued.
| target gene | reagent | two-siRNA summed score (-2 to +2) | mean protection from cisplatin (shift in death) (%) | protection from cisplatin (shift in death), siRNA C (%) | protection from cisplatin (shift in death), siRNA D (%) | outcome |
| --- | --- | --- | --- | --- | --- | --- |
| CPEB4 | 1 | 0 | 3.8 | -5.8 | 13.4 | inactive |
| CBARP | 1 | 0 | 8.1 | 17.6 | -1.4 | inactive |
| LOC124976 | 1 | 0 | 7.9 | 12.5 | 3.3 | inactive |
| KCNE4 | 1 | -2 | -35.1 | -31.3 | -39 | active |
| SPA17 | 1 | 0 | 1.9 | -6.3 | 10 | inactive |
| ARHGAP28 | 1 | 1 | 16.4 | 19 | 13.7 | inactive |
| MTOR | 1 | 0 | -2.6 | 11.1 | -16.2 | inactive |
| LOC440998 | 1 | 0 | 3.7 | 3.3 | 4 | inactive |
| LINC00999 | 1 | 0 | 12.5 | 15.7 | 9.2 | inactive |
| PWP2 | 1 | 0 | 11.5 | 16.8 | 6.1 | inactive |
| BRD7 | 1 | 0 | 6.3 | 5.5 | 7.1 | inactive |
| UPF3B | 1 | 0 | 2.8 | 2.5 | 3.2 | inactive |
| NOS1AP | 1 | 1 | 7.2 | -3.9 | 18.3 | inactive |
